Source: paper doi:10.1101/2023.05.31.543137

Target: T1, FUS (fused in sarcoma) (UniProt P35637)
T1 sequence (looked up, limits assumed): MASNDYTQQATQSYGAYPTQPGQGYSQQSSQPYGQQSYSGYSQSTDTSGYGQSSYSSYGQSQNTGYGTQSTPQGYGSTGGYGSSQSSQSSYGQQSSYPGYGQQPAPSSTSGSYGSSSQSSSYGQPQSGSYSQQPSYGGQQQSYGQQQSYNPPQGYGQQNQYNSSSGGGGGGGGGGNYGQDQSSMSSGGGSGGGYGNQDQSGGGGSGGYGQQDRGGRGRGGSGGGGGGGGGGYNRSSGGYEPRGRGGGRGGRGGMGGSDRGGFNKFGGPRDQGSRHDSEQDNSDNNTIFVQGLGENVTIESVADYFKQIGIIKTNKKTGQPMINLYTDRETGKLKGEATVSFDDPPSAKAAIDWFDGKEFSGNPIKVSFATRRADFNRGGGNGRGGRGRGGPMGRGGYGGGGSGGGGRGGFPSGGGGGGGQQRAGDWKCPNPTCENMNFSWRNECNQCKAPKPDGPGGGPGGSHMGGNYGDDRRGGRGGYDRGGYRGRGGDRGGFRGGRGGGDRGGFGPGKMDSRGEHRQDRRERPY
Test: condensate partitioning, two-colour confocal dilute-phase measurement
Settings: 8% (w/v) PEG 10 kDa, FUS condensates, indirect evidence of interaction, not a Kd

For UUGUAUUUUGAGCUAGUUUGGUGAC [GUG aptamer], the binding signal (dilute phase fraction of aptamer) was 0.1.

For at least one entry, the source does not settle the construct or the ends of the probe. Whether high values mean tight binding is not given here for every scale. Where a protein sequence is shown, tags need not be part of it.
